# This is one part of the list. Many values rest on one well or one pass, so single values are uncertain.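 The apoptosis fraction was the count of cleaved-PARP antibody-stained nuclei relative to all DNA-stained nuclei, imaged in 1,536-well plates. Screening doses were set so most cells survived, and baseline and induced cleaved-PARP levels vary greatly across cell lines.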
# Assays:
# Test in all cases: cleaved PARP positive nuclei fraction relative to DMSO control; melanoma cells; higher = more apoptosis
# Details in all cases: library dose: low library concentration; 72 h
# [1] = system: MZ2-MEL
# [2] = system: MeWo
# [3] = system: RPMI7951
# [4] = system: RVH-421
# [5] = system: SkMel28
# [6] = system: SkMel2
# [7] = system: SkMel30
# [8] = system: UACC62
# [9] = system: WM115
# [10] = system: WM1716
# [11] = system: WM1745
# [12] = system: WM3526
# [13] = system: WM3619
# [14] = system: WM451Lu
# [15] = system: SkMel5
# [16] = system: UACC257
SMILES,cleaved PARP positive nuclei fraction [1],cleaved PARP positive nuclei fraction [2],cleaved PARP positive nuclei fraction [3],cleaved PARP positive nuclei fraction [4],cleaved PARP positive nuclei fraction [5],cleaved PARP positive nuclei fraction [6],cleaved PARP positive nuclei fraction [7],cleaved PARP positive nuclei fraction [8],cleaved PARP positive nuclei fraction [9],cleaved PARP positive nuclei fraction [10],cleaved PARP positive nuclei fraction [11],cleaved PARP positive nuclei fraction [12],cleaved PARP positive nuclei fraction [13],cleaved PARP positive nuclei fraction [14],cleaved PARP positive nuclei fraction [15],cleaved PARP positive nuclei fraction [16]
"Cc1ccc(Nc2nccc(N(C)c3ccc4c(C)n(C)nc4c3)n2)cc1S(N)(=O)=O [Pazopanib] + Cn1nnc2c(C(N)=O)ncn2c1=O [temozolomide] (first compound 0.4 µM, partner dose 2 µM)",51.3%,91.2%,63.6%,31.5%,85.1%,14%,107%,146%,130%,116%,103%,84.8%,106%,49.4%,,
"O=C(/C=C/c1cccnc1)NCCCCC1CCN(C(=O)c2ccccc2)CC1 + Cn1nnc2c(C(N)=O)ncn2c1=O [temozolomide] (first compound 0.01 µM, partner dose 2 µM)",942%,24.9%,97.4%,91.6%,114%,2160%,28.3%,119%,70.2%,584%,90.8%,148%,102%,40.3%,,
"Cc1ccc(Nc2nccc(N(C)c3ccc4c(C)n(C)nc4c3)n2)cc1S(N)(=O)=O [Pazopanib] + CNC(=O)c1cc(Oc2ccc(NC(=O)Nc3ccc(Cl)c(C(F)(F)F)c3)cc2)ccn1 [sorafenib] (first compound 0.4 µM, partner dose 0.4 µM)",40.8%,86.1%,159%,78.8%,68.2%,,120%,195%,118%,86.8%,105%,246%,112%,81.4%,,
"COc1cc([C@@H]2c3cc4c(cc3[C@@H](O[C@@H]3O[C@@H]5CO[C@@H](C)O[C@H]5[C@H](O)[C@H]3O)[C@H]3COC(=O)[C@H]23)OCO4)cc(OC)c1O [etoposide] + C=CCNC1=C2C[C@@H](C)C[C@H](OC)[C@H](O)[C@@H](C)/C=C(\C)[C@H](OC(N)=O)[C@@H](OC)/C=C\C=C(/C)C(=O)NC(=CC1=O)C2=O [Tanespimycin] (first compound 0.02 µM, partner dose 0.002 µM)",102%,98.9%,34.1%,73.5%,38.4%,43.6%,120%,68.4%,,28.9%,101%,140%,104%,25.9%,,
"O=C(/C=C/c1cccnc1)NCCCCC1CCN(C(=O)c2ccccc2)CC1 + C[C@@H](Oc1cc(-c2cnn(C3CCNCC3)c2)cnc1N)c1c(Cl)ccc(F)c1Cl [Crizotinib] (first compound 0.01 µM, partner dose 0.2 µM)",525%,55.6%,62.9%,100%,21.1%,883%,17%,36.1%,68.3%,125%,106%,28%,102%,30.3%,,
"CC[C@]1(O)C[C@H]2CN(CCc3c([nH]c4ccccc34)[C@@](C(=O)OC)(c3cc4c(cc3OC)N(C=O)[C@H]3[C@@](O)(C(=O)OC)[C@H](OC(C)=O)[C@]5(CC)C=CCN6CC[C@]43[C@@H]65)C2)C1 [vincristine] + Cn1sc(=O)n(Cc2ccccc2)c1=O [TDZD-8] (first compound 0.0001 µM, partner dose 0.4 µM)",111%,56.7%,460%,506%,113%,92.5%,88.7%,306%,274%,122%,116%,119%,133%,69%,,
"O=C(Nc1cc(C(F)(F)F)cc(C(F)(F)F)c1)c1cc(Cl)ccc1O + O=C(O)c1ccc2c(c1)nc(Nc1cccc(Cl)c1)c1ccncc12 [CX4945] (first compound 0.016 µM, partner dose 0.4 µM)",139%,63.4%,91.6%,113%,144%,64.3%,22.9%,120%,115%,31.9%,82.5%,79%,186%,77.8%,,
"O=C(/C=C/c1cccnc1)NCCCCC1CCN(C(=O)c2ccccc2)CC1 + CC1(C)CCC(c2ccc(Cl)cc2)=C(CN2CCN(c3ccc(C(=O)NS(=O)(=O)c4ccc(N[C@H](CCN5CCOCC5)CSc5ccccc5)c(S(=O)(=O)C(F)(F)F)c4)cc3)CC2)C1 [ABT263] (first compound 0.01 µM, partner dose 0.4 µM)",1210%,406%,72.3%,210%,78.9%,2700%,231%,62.2%,449%,200%,515%,64.8%,185%,496%,,
"COc1cc([C@@H]2c3cc4c(cc3[C@@H](O[C@@H]3O[C@@H]5CO[C@@H](C)O[C@H]5[C@H](O)[C@H]3O)[C@H]3COC(=O)[C@H]23)OCO4)cc(OC)c1O [etoposide] + Oc1nc(-c2ccc(C(F)(F)F)cc2)nc2c1CSCC2 [XAV939] (first compound 0.02 µM, partner dose 2 µM)",56.6%,53.5%,37.5%,73.1%,51.6%,,104%,69.1%,37.5%,111%,92.4%,54.9%,95.1%,70.8%,159%,51%
"CCCCCCCCCCCCCCCCCCOP(=O)([O-])OC1CC[N+](C)(C)CC1 [Perifosine] + Nc1nc(F)nc2c1ncn2[C@@H]1O[C@H](CO)[C@@H](O)[C@@H]1O [fludarabine] (first compound 0.4 µM, partner dose 0.2 µM)",126%,740%,138%,61.2%,86.6%,761%,2790%,34.3%,145%,75%,106%,168%,101%,117%,,
"CCCCCCCCCCCCCCCCCCOP(=O)([O-])OC1CC[N+](C)(C)CC1 [Perifosine] + Cc1cn(-c2cc(NC(=O)c3ccc(C)c(Nc4nccc(-c5cccnc5)n4)c3)cc(C(F)(F)F)c2)cn1 [nilotinib] (first compound 0.4 µM, partner dose 0.2 µM)",41.2%,36.4%,66.1%,74%,37.1%,117%,53.2%,87.5%,74.3%,28.6%,123%,30.3%,92.4%,99.4%,,
"O=C(Nc1cc(C(F)(F)F)cc(C(F)(F)F)c1)c1cc(Cl)ccc1O + Clc1ccc(Nc2nnc(Cc3ccncc3)c3ccccc23)cc1 [vatalanib] (first compound 0.016 µM, partner dose 2 µM)",25%,148%,154%,47.2%,95.6%,30.7%,107%,75.4%,80.1%,173%,101%,37%,73.3%,388%,,
"O=C(Nc1cc(C(F)(F)F)cc(C(F)(F)F)c1)c1cc(Cl)ccc1O + Cn1c(=O)n(-c2ccc(C(C)(C)C#N)cc2)c2c3cc(-c4cnc5ccccc5c4)ccc3ncc21 [NVP-BEZ235] (first compound 0.016 µM, partner dose 0.004 µM)",88.6%,66.5%,108%,113%,73.5%,88.4%,69.4%,107%,110%,46.7%,102%,76.4%,162%,96.6%,,
"O=C(Nc1cc(C(F)(F)F)cc(C(F)(F)F)c1)c1cc(Cl)ccc1O + CN1CCN(c2ccc3nc(-c4c(N)c5c(F)cccc5[nH]c4=O)[nH]c3c2)CC1 [Dovitinib] (first compound 0.016 µM, partner dose 0.1 µM)",52.7%,20.1%,30.1%,130%,39.3%,91.5%,38.1%,56.3%,105%,44.2%,99.4%,39.8%,93.4%,42.1%,,
"COc1cc([C@@H]2c3cc4c(cc3[C@@H](O[C@@H]3O[C@@H]5CO[C@@H](C)O[C@H]5[C@H](O)[C@H]3O)[C@H]3COC(=O)[C@H]23)OCO4)cc(OC)c1O [etoposide] + Cn1cncc1[C@@](N)(c1ccc(Cl)cc1)c1ccc2c(c1)c(-c1cccc(Cl)c1)cc(=O)n2C [tipifarnib] (first compound 0.02 µM, partner dose 0.01 µM)",59.3%,220%,126%,86.4%,83.6%,,76.7%,115%,72.5%,85.2%,96%,223%,100%,90.5%,46%,81.6%
"Cc1ccc(Nc2nccc(N(C)c3ccc4c(C)n(C)nc4c3)n2)cc1S(N)(=O)=O [Pazopanib] + C=C(c1ccc(C(=O)O)cc1)c1cc2c(cc1C)C(C)(C)CCC2(C)C [Bexarotene] (first compound 0.4 µM, partner dose 2 µM)",72.8%,46.2%,52.4%,51.9%,43.9%,50.8%,58.2%,40.4%,98.2%,89.6%,97.5%,51.7%,80.7%,51.2%,,
"N#CC[C@H](C1CCCC1)n1cc(-c2ncnc3[nH]ccc23)cn1 [ruxolitinib] + CS(=O)(=O)CCNCc1ccc(-c2ccc3ncnc(Nc4ccc(OCc5cccc(F)c5)c(Cl)c4)c3c2)o1 [lapatinib] (first compound 1 µM, partner dose 0.8 µM)",56.4%,148%,52.4%,84.3%,152%,172%,51.6%,,101%,133%,83.9%,70%,96.5%,234%,,
"COc1cc([C@@H]2c3cc4c(cc3[C@@H](O[C@@H]3O[C@@H]5CO[C@@H](C)O[C@H]5[C@H](O)[C@H]3O)[C@H]3COC(=O)[C@H]23)OCO4)cc(OC)c1O [etoposide] + COc1cc2c(Oc3ccc4[nH]c(C)cc4c3F)ncnc2cc1OCCCN1CCCC1 [cediranib] (first compound 0.02 µM, partner dose 0.4 µM)",111%,36.7%,85.5%,79.7%,60.4%,,125%,95%,7.79%,105%,91.4%,86.9%,109%,193%,89.7%,94.5%

# Three entries from above, with tabs.
SMILES	cleaved PARP positive nuclei fraction [1]	cleaved PARP positive nuclei fraction [2]	cleaved PARP positive nuclei fraction [3]	cleaved PARP positive nuclei fraction [4]	cleaved PARP positive nuclei fraction [5]	cleaved PARP positive nuclei fraction [6]	cleaved PARP positive nuclei fraction [7]	cleaved PARP positive nuclei fraction [8]	cleaved PARP positive nuclei fraction [9]	cleaved PARP positive nuclei fraction [10]	cleaved PARP positive nuclei fraction [11]	cleaved PARP positive nuclei fraction [12]	cleaved PARP positive nuclei fraction [13]	cleaved PARP positive nuclei fraction [14]	cleaved PARP positive nuclei fraction [15]	cleaved PARP positive nuclei fraction [16]
Cc1ccc(Nc2nccc(N(C)c3ccc4c(C)n(C)nc4c3)n2)cc1S(N)(=O)=O [Pazopanib] + CNC(=O)c1cc(Oc2ccc(NC(=O)Nc3ccc(Cl)c(C(F)(F)F)c3)cc2)ccn1 [sorafenib] (first compound 0.4 µM, partner dose 0.4 µM)	40.8%	86.1%	159%	78.8%	68.2%		120%	195%	118%	86.8%	105%	246%	112%	81.4%		
COc1cc([C@@H]2c3cc4c(cc3[C@@H](O[C@@H]3O[C@@H]5CO[C@@H](C)O[C@H]5[C@H](O)[C@H]3O)[C@H]3COC(=O)[C@H]23)OCO4)cc(OC)c1O [etoposide] + C=CCNC1=C2C[C@@H](C)C[C@H](OC)[C@H](O)[C@@H](C)/C=C(\C)[C@H](OC(N)=O)[C@@H](OC)/C=C\C=C(/C)C(=O)NC(=CC1=O)C2=O [Tanespimycin] (first compound 0.02 µM, partner dose 0.002 µM)	102%	98.9%	34.1%	73.5%	38.4%	43.6%	120%	68.4%		28.9%	101%	140%	104%	25.9%		
O=C(/C=C/c1cccnc1)NCCCCC1CCN(C(=O)c2ccccc2)CC1 + C[C@@H](Oc1cc(-c2cnn(C3CCNCC3)c2)cnc1N)c1c(Cl)ccc(F)c1Cl [Crizotinib] (first compound 0.01 µM, partner dose 0.2 µM)	525%	55.6%	62.9%	100%	21.1%	883%	17%	36.1%	68.3%	125%	106%	28%	102%	30.3%		

# — the supplement of paper PMC4604168 (melanoma cell lines)
